In paper PMC4385868:
These are yes or no findings as the source states them, for the method shown. Binding seen in cells or lysates may run through a third protein. Some entries that bind do so weakly or less than the wild type. For some assays here: Tags and fused reporters may be left off the sequences shown.

Amino acid sequences for entries named in this document (tags omitted).
UniProt P35222: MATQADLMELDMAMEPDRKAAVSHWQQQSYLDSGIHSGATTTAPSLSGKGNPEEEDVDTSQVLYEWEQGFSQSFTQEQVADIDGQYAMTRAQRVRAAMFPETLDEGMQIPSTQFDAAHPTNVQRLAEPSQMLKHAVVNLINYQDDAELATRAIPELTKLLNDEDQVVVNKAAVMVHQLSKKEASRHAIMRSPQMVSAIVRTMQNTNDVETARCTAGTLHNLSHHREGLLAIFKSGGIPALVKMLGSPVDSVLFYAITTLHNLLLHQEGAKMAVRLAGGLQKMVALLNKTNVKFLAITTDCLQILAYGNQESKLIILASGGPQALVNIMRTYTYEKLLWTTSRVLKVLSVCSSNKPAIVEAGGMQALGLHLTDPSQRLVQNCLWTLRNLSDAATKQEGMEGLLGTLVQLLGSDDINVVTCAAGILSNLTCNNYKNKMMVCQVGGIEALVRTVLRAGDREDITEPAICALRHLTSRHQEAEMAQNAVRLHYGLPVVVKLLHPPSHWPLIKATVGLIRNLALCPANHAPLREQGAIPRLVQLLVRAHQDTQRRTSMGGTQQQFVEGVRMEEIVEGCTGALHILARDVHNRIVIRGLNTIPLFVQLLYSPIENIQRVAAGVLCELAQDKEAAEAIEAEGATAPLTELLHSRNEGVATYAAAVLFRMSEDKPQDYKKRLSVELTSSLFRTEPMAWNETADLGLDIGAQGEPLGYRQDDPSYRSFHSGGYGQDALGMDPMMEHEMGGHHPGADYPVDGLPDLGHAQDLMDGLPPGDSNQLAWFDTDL
UniProt Q02248: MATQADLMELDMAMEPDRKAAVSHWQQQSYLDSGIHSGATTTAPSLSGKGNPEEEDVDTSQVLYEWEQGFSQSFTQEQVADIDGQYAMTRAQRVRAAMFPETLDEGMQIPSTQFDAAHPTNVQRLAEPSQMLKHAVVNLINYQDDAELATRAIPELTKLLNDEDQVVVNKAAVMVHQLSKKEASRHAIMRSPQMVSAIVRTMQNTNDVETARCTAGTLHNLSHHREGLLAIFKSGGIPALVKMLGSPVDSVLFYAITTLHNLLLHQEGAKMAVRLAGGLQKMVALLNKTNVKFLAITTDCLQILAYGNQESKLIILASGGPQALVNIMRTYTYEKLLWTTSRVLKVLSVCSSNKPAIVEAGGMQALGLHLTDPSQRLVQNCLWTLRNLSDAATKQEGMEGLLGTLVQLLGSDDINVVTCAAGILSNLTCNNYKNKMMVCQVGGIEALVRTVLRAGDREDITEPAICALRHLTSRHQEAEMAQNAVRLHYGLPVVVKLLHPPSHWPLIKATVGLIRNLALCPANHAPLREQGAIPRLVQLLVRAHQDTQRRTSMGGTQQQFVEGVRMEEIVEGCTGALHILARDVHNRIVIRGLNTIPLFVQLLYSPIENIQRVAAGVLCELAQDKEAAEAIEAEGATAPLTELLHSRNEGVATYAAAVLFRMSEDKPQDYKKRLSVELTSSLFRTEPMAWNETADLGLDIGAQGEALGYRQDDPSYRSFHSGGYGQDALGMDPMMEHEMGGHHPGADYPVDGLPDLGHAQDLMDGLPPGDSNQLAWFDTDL

Experiments:
[1] = target: T1, endogenous Vav1 (human (endogenous in H358 and H441)) (UniProt P15498); test: co-IP; total cell extracts of H358 and H441 cells precipitated with anti-Vav1 Ab or control IgG (1% NP-40 lysis buffer); partners detected by sequential immunoblotting
T1 sequence: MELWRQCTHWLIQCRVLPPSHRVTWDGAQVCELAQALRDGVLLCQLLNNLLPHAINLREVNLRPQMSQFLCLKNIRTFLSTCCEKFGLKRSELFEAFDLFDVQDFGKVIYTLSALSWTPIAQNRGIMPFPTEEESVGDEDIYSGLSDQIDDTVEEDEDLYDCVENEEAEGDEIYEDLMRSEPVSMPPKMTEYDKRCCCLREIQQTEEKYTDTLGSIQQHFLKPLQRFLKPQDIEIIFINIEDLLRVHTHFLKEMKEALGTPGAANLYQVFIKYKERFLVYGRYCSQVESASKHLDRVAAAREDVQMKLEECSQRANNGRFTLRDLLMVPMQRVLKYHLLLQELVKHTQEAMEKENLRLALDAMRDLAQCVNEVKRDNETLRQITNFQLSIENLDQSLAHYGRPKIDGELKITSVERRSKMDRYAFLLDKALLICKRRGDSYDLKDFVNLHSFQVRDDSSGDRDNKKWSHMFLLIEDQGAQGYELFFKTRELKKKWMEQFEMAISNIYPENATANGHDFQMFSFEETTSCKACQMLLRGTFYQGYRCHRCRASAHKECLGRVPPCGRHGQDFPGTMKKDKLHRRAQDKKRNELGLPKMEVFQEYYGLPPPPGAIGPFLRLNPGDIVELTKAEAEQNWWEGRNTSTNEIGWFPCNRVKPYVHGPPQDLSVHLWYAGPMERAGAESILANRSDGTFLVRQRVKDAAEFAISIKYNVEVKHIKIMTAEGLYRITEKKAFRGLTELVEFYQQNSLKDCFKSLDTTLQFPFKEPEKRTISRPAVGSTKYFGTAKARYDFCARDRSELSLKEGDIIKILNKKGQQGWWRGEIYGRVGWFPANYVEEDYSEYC

GST-SH2 (human) = target: T2, GST-SH2 (human) (UniProt P15498); test: pull-down; GST fusion proteins bound to glutathione-Sepharose 4B beads incubated 2 hours with NIH3T3 cell extracts; β-catenin detected by immunoblotting; only the target purified
T2 sequence: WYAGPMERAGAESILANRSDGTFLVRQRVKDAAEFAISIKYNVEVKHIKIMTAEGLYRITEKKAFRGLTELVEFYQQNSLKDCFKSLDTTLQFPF

binding [1]	binding (GST-SH2 (human))	Substance
binds	–	β-catenin (from UniProt P35222 1-781)
–	binds	β-catenin (from UniProt Q02248 1-781)
